These are yes or no findings as the source states them, for the method shown. Binding seen in cells or lysates may run through a third protein. A yes stands for co-enrichment or nearness to the bait. Other partners may have been found. For some of these results: A no says only that the protein was not detected with the bait.
What was measured:
[1] = biological target: MCL1^TurboID (full-length MCL1 fused to two NLS and a C-terminal TurboID) (UniProt Q07820); test: proximity labelling; TurboID proximity biotinylation in live transfected HCT116 and HeLa cells: MCL1^TurboID (two NLS) compared with an identical GFP^TurboID construct; 67 uM biotin, 15-20 min, 37°C; RIPA lysis, streptavidin magnetic beads, on-bead trypsin digest, LC-MS/MS; SAINT, hits at SP > 0.8; technical triplicate
[2] = biological target: MCL1^TurboID (full-length MCL1 fused to two NLS and a C-terminal TurboID), Q07820; test: as above; conditions: remark: other sources report otherwise

Chains of the proteins cited; added tags and fusions are not shown.
UniProt Q07820: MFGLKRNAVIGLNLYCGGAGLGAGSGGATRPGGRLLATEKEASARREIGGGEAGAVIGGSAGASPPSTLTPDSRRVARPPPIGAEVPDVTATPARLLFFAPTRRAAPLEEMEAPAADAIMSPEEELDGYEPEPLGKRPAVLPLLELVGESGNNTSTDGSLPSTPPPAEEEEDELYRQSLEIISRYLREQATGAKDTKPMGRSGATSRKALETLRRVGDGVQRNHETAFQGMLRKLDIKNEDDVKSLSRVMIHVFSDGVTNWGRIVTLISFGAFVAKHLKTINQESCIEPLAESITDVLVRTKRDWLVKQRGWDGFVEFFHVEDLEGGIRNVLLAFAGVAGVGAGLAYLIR

| Binder | binding [1] | binding [2] |
| --- | --- | --- |
| DNA fragmentation factor alpha (DFFA) (protein, UniProt O00273 1-331) MEVTGDAGVPESGEIRTLKPCLLRRNYSREQHGVAASCLEDLRSKACDILAIDKSLTPVTLVLAEDGTIVDDDDYFLCLPSNTKFVALASNEKWAYNNSDGGTAWISQESFDVDETDSGAGLKWKNVARQLKEDLSSIILLSEEDLQMLVDAPCSDLAQELRQSCATVQRLQHTLQQVLDQREEVRQSKQLLQLYLQALEKEGSLLSKQEESKAAFGEEVDAVDTGISRETSSDVALASHILTALREKQAPELSLSSQDLELVTKEDPKALAVALNWDIKKTETVQEACERELALRLQQTQSLHSLRSISASKASPPGDLQNPKRARQDPT | binds | – |
| deubiquitinating enzyme VCPIP1 (enzyme, UniProt Q96JH7 1-1222) MSQPPPPPPPLPPPPPPPEAPQTPSSLASAAASGGLLKRRDRRILSGSCPDPKCQARLFFPASGSVSIECTECGQRHEQQQLLGVEEVTDPDVVLHNLLRNALLGVTGAPKKNTELVKVMGLSNYHCKLLSPILARYGMDKQTGRAKLLRDMNQGELFDCALLGDRAFLIEPEHVNTVGYGKDRSGSLLYLHDTLEDIKRANKSQECLIPVHVDGDGHCLVHAVSRALVGRELFWHALRENLKQHFQQHLARYQALFHDFIDAAEWEDIINECDPLFVPPEGVPLGLRNIHIFGLANVLHRPIILLDSLSGMRSSGDYSATFLPGLIPAEKCTGKDGHLNKPICIAWSSSGRNHYIPLVGIKGAALPKLPMNLLPKAWGVPQDLIKKYIKLEEDGGCVIGGDRSLQDKYLLRLVAAMEEVFMDKHGIHPSLVADVHQYFYRRTGVIGVQPEEVTAAAKKAVMDNRLHKCLLCGALSELHVPPEWLAPGGKLYNLAKSTHGQLRTDKNYSFPLNNLVCSYDSVKDVLVPDYGMSNLTACNWCHGTSVRKVRGDGSIVYLDGDRTNSRSTGGKCGCGFKHFWDGKEYDNLPEAFPITLEWGGRVVRETVYWFQYESDSSLNSNVYDVAMKLVTKHFPGEFGSEILVQKVVHTILHQTAKKNPDDYTPVNIDGAHAQRVGDVQGQESESQLPTKIILTGQKTKTLHKEELNMSKTERTIQQNITEQASVMQKRKTEKLKQEQKGQPRTVSPSTIRDGPSSAPATPTKAPYSPTTSKEKKIRITTNDGRQSMVTLKSSTTFFELQESIAREFNIPPYLQCIRYGFPPKELMPPQAGMEKEPVPLQHGDRITIEILKSKAEGGQSAAAHSAHTVKQEDIAVTGKLSSKELQEQAEKEMYSLCLLATLMGEDVWSYAKGLPHMFQQGGVFYSIMKKTMGMADGKHCTFPHLPGKTFVYNASEDRLELCVDAAGHFPIGPDVEDLVKEAVSQVRAEATTRSRESSPSHGLLKLGSGGVVKKKSEQLHNVTAFQGKGHSLGTASGNPHLDPRARETSVVRKHNTGTDFSNSSTKTEPSVFTASSSNSELIRIAPGVVTMRDGRQLDPDLVEAQRKKLQEMVSSIQASMDRHLRDQSTEQSPSDLPQRKTEVVSSSAKSGSLQTGLPESFPLTGGTENLNTETTDGCVADALGAAFATRSKAQRGNSVEELEEMDSQDAEMTNTTEPMDHS | binds | – |

Further lines, results first:

| binding [1] | binding [2] | Binder |
| --- | --- | --- |
| binds | – | translationally-controlled tumor protein TPT1 aka p23 (protein, UniProt P13693 1-172) MIIYRDLISHDEMFSDIYKIREIADGLCLEVEGKMVSRTEGNIDDSLIGGNASAEGPEGEGTESTVITGVDIVMNHHLQETSFTKEAYKKYIKDYMKSIKGKLEEQRPERVKPFMTGAAEQIKHILANFKNYQFFIGENMNPDGMVALLDYREDGVTPYMIFFKDGLEMEKC |
| – | no binding | MCM5, P33992 1-734 (protein) MSGFDDPGIFYSDSFGGDAQADEGQARKSQLQRRFKEFLRQYRVGTDRTGFTFKYRDELKRHYNLGEYWIEVEMEDLASFDEDLADYLYKQPAEHLQLLEEAAKEVADEVTRPRPSGEEVLQDIQVMLKSDASPSSIRSLKSDMMSHLVKIPGIIIAASAVRAKATRISIQCRSCRNTLTNIAMRPGLEGYALPRKCNTDQAGRPKCPLDPYFIMPDKCKCVDFQTLKLQELPDAVPHGEMPRHMQLYCDRYLCDKVVPGNRVTIMGIYSIKKFGLTTSRGRDRVGVGIRSSYIRVLGIQVDTDGSGRSFAGAVSPQEEEEFRRLAALPNVYEVISKSIAPSIFGGTDMKKAIACLLFGGSRKRLPDGLTRRGDINLLMLGDPGTAKSQLLKFVEKCSPIGVYTSGKGSSAAGLTASVMRDPSSRNFIMEGGAMVLADGGVVCIDEFDKMREDDRVAIHEAMEQQTISIAKAGITTTLNSRCSVLAAANSVFGRWDETKGEDNIDFMPTILSRFDMIFIVKDEHNEERDVMLAKHVITLHVSALTQTQAVEGEIDLAKLKKFIAYCRVKCGPRLSAEAAEKLKNRYIIMRSGARQHERDSDRRSSIPITVRQLEAIVRIAEALSKMKLQPFATEADVEEALRLFQVSTLDAALSGTLSGVEGFTSQEDQEMLSRIEKQLKRRFAIGSQVSEHSIIKDFTKQKYPEHAIHKVLQLMLRRGEIQHRMQRKVLYRLK |

— PMC12407772
